PubChem BioAssay AID1259424, University of Nebraska Medical Center, 2018
Screen: 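Rank knockdowns across the genome by resemblance to the KSR1 depletion profile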 (primary screen). Cell system: human HCT116 colon cancer cells. Reagents: siRNA pool against human genes, 50 nM. Read-out: 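Log2 levels of six mRNAs (branched-DNA multiplex), adjusted by two reference genes and the non-targeting median, then scored against the average KSR1 knockdown pattern as Pearson r and euclidean distance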. Scale: mean correlation with KSR1 profile: higher = expression change more like KSR1 knockdown.
This is an unselected part of about 14,000 reagents tested. 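Higher correlation or smaller distance means closer resemblance to KSR1 loss; control wells, including KSR1 knockdowns, recur on many plates.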 The numbers tell different reagents against one gene apart. Not all columns of the deposit are shown. Reagent sequences are not shown. Not given: the time to read-out.

How did the screen score GANAB (glucosidase II alpha subunit)?
mean correlation with KSR1 profile: -0.581

How did the screen score GGT7 (gamma-glutamyltransferase 7)?
mean correlation with KSR1 profile: 0.375

What did the screen give for GPC4 (glypican 4)?
mean correlation with KSR1 profile: -0.471

For SLC49A4, what does the deposit list?
mean correlation with KSR1 profile: -0.365

How did the screen score GNB4 (G protein subunit beta 4)?
mean correlation with KSR1 profile: 0.553

What is on record for DMXL1 (Dmx like 1)?
mean correlation with KSR1 profile: 0.819

What is on record for TSG101 (tumor susceptibility 101)?
mean correlation with KSR1 profile: -0.649

With SCAP (SREBF chaperone), what does the deposit list?
mean correlation with KSR1 profile: -0.164

For SLC35E3, what was measured?
mean correlation with KSR1 profile: -0.0491

For PGCKA1 (PDCD10 and GCKIII kinases associated 1), how do the results read?
mean correlation with KSR1 profile: -0.247

With SUSD5 (sushi domain containing 5), what does the deposit list?
mean correlation with KSR1 profile: -0.325

For SPINK4 (serine peptidase inhibitor Kazal type 4), what was measured?
mean correlation with KSR1 profile: -0.169

With MRPL32 (mitochondrial ribosomal protein L32), what was measured?
mean correlation with KSR1 profile: -0.227

Which result is listed for PCDHB9 (protocadherin beta 9)?
mean correlation with KSR1 profile: 0.0178

For LPAL2 (lipoprotein(a) like 2 (pseudogene)), how do the results read?
mean correlation with KSR1 profile: -0.801

How did the screen score SUPT20H (SPT20 homolog, SAGA complex component)?
mean correlation with KSR1 profile: -0.529

With SNIP1 (Smad nuclear interacting protein 1), how do the results read?
mean correlation with KSR1 profile: 0.45

What is on record for UCP1 (uncoupling protein 1)?
mean correlation with KSR1 profile: 0.0864

What is on record for KMT2A (lysine methyltransferase 2A) #1?
mean correlation with KSR1 profile: 0.517

For KMT2A (lysine methyltransferase 2A) #2, what does the deposit list?
mean correlation with KSR1 profile: 0.204

For STAT5B (signal transducer and activator of transcription 5B), what does the deposit list?
mean correlation with KSR1 profile: -0.503

For MEF2A (myocyte enhancer factor 2A), what was measured?
mean correlation with KSR1 profile: -0.133

Which result is listed for MAP4K4 (mitogen-activated protein kinase kinase kinase kinase 4)?
mean correlation with KSR1 profile: 0.832

What did the screen give for YME1L1 (YME1 like 1 ATPase)?
mean correlation with KSR1 profile: -0.0691

What did the screen give for GMNN (geminin DNA replication inhibitor)?
mean correlation with KSR1 profile: 0.0884

What did the screen give for ERBIN (erbb2 interacting protein)?
mean correlation with KSR1 profile: 0.0379

Which result is listed for ZNF574 (zinc finger protein 574)?
mean correlation with KSR1 profile: -0.389

What did the screen give for SYNE1 (spectrin repeat containing nuclear envelope protein 1)?
mean correlation with KSR1 profile: -0.0844

What did the screen give for SHCBP1L (SHC binding and spindle associated 1 like)?
mean correlation with KSR1 profile: 0.149

For STARD3NL (STARD3 N-terminal like), what was measured?
mean correlation with KSR1 profile: 0.416

Which result is listed for PADI4 (peptidyl arginine deiminase 4)?
mean correlation with KSR1 profile: -0.662

For SEPTIN3 (septin 3), what does the deposit list?
mean correlation with KSR1 profile: 0.858

Which result is listed for GABARAP (GABA type A receptor-associated protein)?
mean correlation with KSR1 profile: 0.791

Which result is listed for INSL5 (insulin like 5)?
mean correlation with KSR1 profile: 0.399

How did the screen score RHBG (Rh family B glycoprotein)?
mean correlation with KSR1 profile: -0.0367

How did the screen score DACH2 (dachshund family transcription factor 2)?
mean correlation with KSR1 profile: 0.932

Targets above whose target name starts with K or k (2):
KMT2A (lysine methyltransferase 2A) #1 | mean correlation with KSR1 profile: 0.517
KMT2A (lysine methyltransferase 2A) #2 | mean correlation with KSR1 profile: 0.204
